The values below come from paper PMC10415273.

Sequences of proteins named here, by UniProt entry; tags and fusion partners are left off.
UniProt Q7Z434: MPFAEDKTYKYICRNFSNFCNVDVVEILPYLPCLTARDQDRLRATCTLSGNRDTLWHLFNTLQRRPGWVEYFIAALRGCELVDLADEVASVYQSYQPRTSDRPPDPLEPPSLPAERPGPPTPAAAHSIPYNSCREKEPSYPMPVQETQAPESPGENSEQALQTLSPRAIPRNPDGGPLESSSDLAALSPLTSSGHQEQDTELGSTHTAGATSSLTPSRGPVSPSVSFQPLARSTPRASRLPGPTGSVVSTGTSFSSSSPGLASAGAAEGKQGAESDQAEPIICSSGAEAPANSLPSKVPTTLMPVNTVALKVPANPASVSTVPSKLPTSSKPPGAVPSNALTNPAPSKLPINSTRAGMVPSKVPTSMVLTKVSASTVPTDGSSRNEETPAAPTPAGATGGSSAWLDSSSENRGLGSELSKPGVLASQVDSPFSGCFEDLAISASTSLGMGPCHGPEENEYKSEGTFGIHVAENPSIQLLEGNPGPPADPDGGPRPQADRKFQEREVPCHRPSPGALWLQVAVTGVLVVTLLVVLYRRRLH
UniProt O14744: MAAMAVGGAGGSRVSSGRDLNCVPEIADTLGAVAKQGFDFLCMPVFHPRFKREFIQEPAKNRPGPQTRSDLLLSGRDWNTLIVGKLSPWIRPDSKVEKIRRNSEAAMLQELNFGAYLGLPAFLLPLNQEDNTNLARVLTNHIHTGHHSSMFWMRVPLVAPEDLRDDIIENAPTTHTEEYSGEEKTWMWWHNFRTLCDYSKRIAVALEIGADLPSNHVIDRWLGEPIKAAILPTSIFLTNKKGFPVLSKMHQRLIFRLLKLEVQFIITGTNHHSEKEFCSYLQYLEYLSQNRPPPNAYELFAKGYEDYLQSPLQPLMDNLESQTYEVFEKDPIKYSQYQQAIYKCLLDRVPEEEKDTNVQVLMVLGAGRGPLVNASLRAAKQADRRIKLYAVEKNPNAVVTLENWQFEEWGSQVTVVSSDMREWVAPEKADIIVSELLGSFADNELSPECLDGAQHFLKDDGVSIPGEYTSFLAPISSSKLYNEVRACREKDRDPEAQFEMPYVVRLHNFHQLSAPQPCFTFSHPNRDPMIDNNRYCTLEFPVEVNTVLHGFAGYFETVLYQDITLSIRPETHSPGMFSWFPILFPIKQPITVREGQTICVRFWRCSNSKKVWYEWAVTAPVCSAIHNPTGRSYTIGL

No constants are given. Whether binding was seen depends on the method and setting. In cells and extracts the contact can be indirect. These calls come from enrichment with a bait or labelling near it, and not all partners need be listed.

The target in the assay is Flag-MAVS (human) (UniProt Q7Z434). The experiment in a line: affinity purification with mass spectrometry; Flag-MAVS pulled down on M2 beads from HEK293T-Flag-MAVS stable cells lacking endogenous MAVS; SDS-PAGE, silver staining, mass spectrometry.

Consider “endogenous PRMT5 (from UniProt O14744 1-637)”, for which the binding result is listed as “binds”.
